Values from PubChem BioAssay AID1259424 (University of Nebraska Medical Center, 2018).
Aim: 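Rank knockdowns across the genome by resemblance to the KSR1 depletion profile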 (primary screen). System: human HCT116 colon cancer cells. Reagents: siRNA pool against human genes, 50 nM. Measurement: 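Six signature mRNAs by branched-DNA multiplex assay, scaled to two housekeeping genes and non-targeting median, log2; matched to mean KSR1 knockdown profile by Pearson correlation and euclidean distance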. Direction: mean correlation with KSR1 profile: higher = expression change more like KSR1 knockdown; mean distance from KSR1 profile: higher = expression change less like KSR1 knockdown.
The whole screen tested about 14,000 reagents; shown is a part drawn at random. 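Higher correlation or smaller distance means closer resemblance to KSR1 loss; control wells, including KSR1 knockdowns, recur on many plates.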 Not all columns of the deposit are shown. Not given: the time to read-out.

For C2orf42 (chromosome 2 open reading frame 42), the entry reads mean correlation with KSR1 profile 0.228; mean distance from KSR1 profile 1.58.
After knock-down of SOD1 (superoxide dismutase 1), the record shows mean correlation with KSR1 profile -0.112; mean distance from KSR1 profile 2.77.
Silencing of UGT2B17 (UDP glucuronosyltransferase family 2 member B17) came out at: mean correlation with KSR1 profile 0.0822; mean distance from KSR1 profile 1.46.
CLEC2D (C-type lectin domain family 2 member D) showed mean correlation with KSR1 profile 0.0384; mean distance from KSR1 profile 2.62.
Against OGFOD3 the deposit lists mean correlation with KSR1 profile 0.231; mean distance from KSR1 profile 1.66.
After knock-down of UTP6 (UTP6 small subunit processome component) the results were mean correlation with KSR1 profile -0.344; mean distance from KSR1 profile 1.03.
Depletion of GABBR1 (gamma-aminobutyric acid type B receptor subunit 1) resulted in: mean correlation with KSR1 profile 0.681; mean distance from KSR1 profile 1.48.
DRC3 (dynein regulatory complex subunit 3) scored mean correlation with KSR1 profile 0.436; mean distance from KSR1 profile 1.62.
SCARF2 (scavenger receptor class F member 2) showed mean correlation with KSR1 profile 0.241; mean distance from KSR1 profile 1.14.
Depletion of USO1 (USO1 vesicle transport factor) came out at: mean correlation with KSR1 profile 0.617; mean distance from KSR1 profile 1.59.
AFG2B (AAA ATPase AFG2B) gave mean correlation with KSR1 profile 0.277; mean distance from KSR1 profile 3.88.
Silencing of ANKRD6 (ankyrin repeat domain 6) came out at: mean correlation with KSR1 profile -0.744; mean distance from KSR1 profile 1.68.
TKTL2 (transketolase like 2) gave mean correlation with KSR1 profile 0.875; mean distance from KSR1 profile 0.906.
For MMP19 (matrix metallopeptidase 19), the values are mean correlation with KSR1 profile 0.847; mean distance from KSR1 profile 1.14.
With knock-down of SPRY1 (sprouty RTK signaling antagonist 1), the screen gave mean correlation with KSR1 profile -0.408; mean distance from KSR1 profile 4.1.
For COASY (Coenzyme A synthase) the deposit lists mean correlation with KSR1 profile 0.704; mean distance from KSR1 profile 2.04.
After knock-down of KPNB1 (karyopherin subunit beta 1) the results were mean correlation with KSR1 profile 0.247; mean distance from KSR1 profile 1.29.
H2AP (H2A.P histone) scored mean correlation with KSR1 profile -0.319; mean distance from KSR1 profile 1.27.
With knock-down of COX7A1 (cytochrome c oxidase subunit 7A1), the record shows mean correlation with KSR1 profile 0.0703; mean distance from KSR1 profile 1.76.
Depletion of SCNN1B (sodium channel epithelial 1 subunit beta) resulted in: mean correlation with KSR1 profile 0.148; mean distance from KSR1 profile 1.75.
For HNRNPL (heterogeneous nuclear ribonucleoprotein L), the values are mean correlation with KSR1 profile -0.55; mean distance from KSR1 profile 5.98.
With knock-down of MAPK1 (mitogen-activated protein kinase 1) the results were mean correlation with KSR1 profile 0.494; mean distance from KSR1 profile 1.14.
Knock-down of MTHFS (methenyltetrahydrofolate synthetase) gave: mean correlation with KSR1 profile -0.408; mean distance from KSR1 profile 2.69.
For ESRP2 (epithelial splicing regulatory protein 2), the entry reads mean correlation with KSR1 profile -0.359; mean distance from KSR1 profile 2.7.
With knock-down of LINC00525 (long independently transcribed non-coding RNA 525), the record shows mean correlation with KSR1 profile 0.366; mean distance from KSR1 profile 3.24.
For GPR32 (G protein-coupled receptor 32) the deposit lists mean correlation with KSR1 profile 0.378; mean distance from KSR1 profile 2.2.
After knock-down of ARL1 (ARF like GTPase 1), the record shows mean correlation with KSR1 profile -0.741; mean distance from KSR1 profile 2.96.
ACE (angiotensin I converting enzyme) scored mean correlation with KSR1 profile -0.154; mean distance from KSR1 profile 1.98.
TMEM135 (transmembrane protein 135) showed mean correlation with KSR1 profile 0.547; mean distance from KSR1 profile 0.925.
With knock-down of PAFAH1B3 the results were mean correlation with KSR1 profile -0.133; mean distance from KSR1 profile 2.45.
Depletion of E2F4 (E2F transcription factor 4) resulted in: mean correlation with KSR1 profile -0.386; mean distance from KSR1 profile 1.78.
With knock-down of CD52 (CD52 molecule) the results were mean correlation with KSR1 profile 0.407; mean distance from KSR1 profile 2.32.
RAE1 (ribonucleic acid export 1) gave mean correlation with KSR1 profile -0.0874; mean distance from KSR1 profile 2.34.
After knock-down of PADI2 (peptidyl arginine deiminase 2) the results were mean correlation with KSR1 profile -0.421; mean distance from KSR1 profile 2.44.
With knock-down of MYF6 (myogenic factor 6), the record shows mean correlation with KSR1 profile 0.0257; mean distance from KSR1 profile 1.7.
With knock-down of DENND2A (DENN domain containing 2A), the record shows mean correlation with KSR1 profile -0.464; mean distance from KSR1 profile 1.32.

Not a retest: entries from further up.
CD52 (CD52 molecule) | mean correlation with KSR1 profile = 0.407; mean distance from KSR1 profile = 2.32
RAE1 (ribonucleic acid export 1) | mean correlation with KSR1 profile = -0.0874; mean distance from KSR1 profile = 2.34
PADI2 (peptidyl arginine deiminase 2) | mean correlation with KSR1 profile = -0.421; mean distance from KSR1 profile = 2.44
MYF6 (myogenic factor 6) | mean correlation with KSR1 profile = 0.0257; mean distance from KSR1 profile = 1.7
DENND2A (DENN domain containing 2A) | mean correlation with KSR1 profile = -0.464; mean distance from KSR1 profile = 1.32
